Assay results taken from the supplement of paper PMC5949888.
Most values lie at the floor of the assay. Slopes are relative: functional sequences can read slightly below zero.

Tested on: Saccharomyces cerevisiae PS128 hsf1 delta, HSF1(1-493) fusion
Experiment: growth estimate (transactivation domain function in HSF1 fusion, heat-shock survival) (a.u. (slope of normalised read count over time)); higher = stronger growth at 37°C, i.e. more transactivation activity
Details: library: random library

| Substance | growth estimate |
| --- | --- |
| PLGSWRGLCGVVSCSFIVST | < -0.25 |
| VHW | < -0.25 |
| AVTFIVR | < -0.25 |
| PRLGSSRGSWYRLAVFLVSS | < -0.25 |
| MDSYR | < -0.25 |
| IGAGNPIVTGCVGCCWFAST | < -0.25 |
| PVNTSQYGFERVAWGLYSLR | < -0.25 |
| RMKLRTTSCL | < -0.25 |
| SAVKCVNVQLNLWIRHGSKL | < -0.25 |
| TGKRRVTLP | < -0.25 |
| SSRN | < -0.25 |
| NSVAGVRPIAIRVR | < -0.25 |
| TEQASGSGHRYWYFSRDDRL | < -0.25 |
| IHVLSSCR | < -0.25 |
| LWKACGGASGVNYEMYRSSG | < -0.25 |
| GRASLAVLTLGLYCFGRTEA | < -0.25 |
| TSADIKNA | < -0.25 |
| DIQARCN | < -0.25 |
| DFSRLPWAHGRNGGHTYTPQ | < -0.25 |
| RVGARYACSRSHQGRRFQKQ | < -0.25 |
| FPTSQRETRAYGSRSMATPL | < -0.25 |
| SSRQPQRVSGQKVHGPIEPC | < -0.25 |
| LGRG | < -0.25 |

| Substance | growth estimate |
| --- | --- |
| SLVLRELVFEIKCNSMYIVR | < -0.25 |
| RFAPIVTSYP | < -0.25 |
| SGVLDISCAATPVQAQ | < -0.25 |
| VRTALKASFAQIVVAFKFFV | < -0.25 |
| PVLLYIKSLSGRGDNSPRPC | -0.246 |
| MRDGGSLVQRVVCSTSTPGS | < -0.25 |
| ISRVQRPQGPADCKVFQGVP | < -0.25 |
| IVEGQ | -0.246 |
| CRSVKRRTNIMWIARVFM | < -0.25 |
| VRVLATEVAAPPGRSVNQSP | < -0.25 |
| INVNAVVWSFGRVPRFLQCQ | < -0.25 |
| GFQSRALDLRP | < -0.25 |
| QRGVS | < -0.25 |
| RLVGGRRRGSIPRRPAHLSL | -0.25 |
| SYSLVVLQSCHASRIRGAPS | < -0.25 |
| HRSRPLRVRNCFKIIAMHMG | < -0.25 |
| NGCLPGRMTFF | < -0.25 |
| SLVP | < -0.25 |
| LTTDEIYPC | < -0.25 |
| VVHV | < -0.25 |
| AQFRFVCSRVCRADGKEDRA | < -0.25 |
| SCGALRMPCKSLRVAGGGMP | < -0.25 |
| RDRHAV | < -0.25 |

Single entries from the results shown:
For growth estimate, NGCLPGRMTFF has < -0.25
For growth estimate, CRSVKRRTNIMWIARVFM has < -0.25
For growth estimate, GFQSRALDLRP has < -0.25

Additional entries follow:

| Substance | growth estimate |
| --- | --- |
| KGYATRIIPYGFNS | < -0.25 |
| SDWHLDRPVPVTGKGVSTRV | < -0.25 |
| IHVVLVLLP | < -0.25 |
| AKQTTQIVFRERCRQAHNPR | < -0.25 |
| KHRAYQSVGL | < -0.25 |
| AIEIWHFGSASGGPPRGGTA | 0.0022 |
| IRW | < -0.25 |
| ACGGSSG | < -0.25 |
| IGTRIKGDRHVRVARG | < -0.25 |
| EGGKTLAGSQLPKA | < -0.25 |
| SKLAMVLP | -0.218 |
| SVGSCRL | < -0.25 |
| PHITMVVRKRSHAEREVHRL | < -0.25 |
| SLDW | < -0.25 |
| ALVISGGELYNR | < -0.25 |
| VYKT | < -0.25 |
| VDWLAMLERSIVIFQRPGDT | < -0.25 |
| GYRPLTVTRYLQIMSTSDHR | < -0.25 |
| TTVKLRKPLM | < -0.25 |
| HGIQRDQCHPSLCVVQVLQL | < -0.25 |
| LEAREKN | < -0.25 |
| AADHVGYLYWSALRGYARPY | < -0.25 |
| LGDHKLVLIQP | < -0.25 |

| Substance | growth estimate |
| --- | --- |
| AWLRVR | < -0.25 |
| DIFRTIAQALGFWARDQRWG | < -0.25 |
| LAGGKFVELSNGSVGERPIF | < -0.25 |
| HVKSRSYLPSTRSLKFRYIC | -0.246 |
| LGWTVQLLMTIRVRSAEEAT | < -0.25 |
| GLIHGHDRTSGGGDVSGSHA | < -0.25 |
| HLLRPIALTRIRGPYRASGA | < -0.25 |
| PHAEDKSKSRECWLGECVWD | -0.23 |
| WCKFVRHVSK | 0.126 |
| QEIVSRERRIHIHIY | < -0.25 |
| HRDRYHSTTACVS | < -0.25 |
| RYRDNRLSQSFSHSLAKPAH | < -0.25 |
| DLVWGMGRVSDLLSR | < -0.25 |
| PVVLMNGFVL | < -0.25 |
| PVSSVETHQVVVWLDG | < -0.25 |
| QDPTPL | -0.243 |
| EAHVLTNIPFG | < -0.25 |
| TSIISGTTMAFALTRGKGTY | < -0.25 |
| RQCGALLVLRRPRYSWPHKE | < -0.25 |
| IYVNIFTVEVAGGASKNDVS | < -0.25 |
| RSKPPWLNVLSSVATLVARP | < -0.25 |
| SFR | < -0.25 |
| EGAWC | < -0.25 |

| Substance | growth estimate |
| --- | --- |
| PNSVVYE | < -0.25 |
| RSGVNSRCCFAIELLVAVST | < -0.25 |
| CALRTRLASRCTWVCDCVGE | < -0.25 |
| RYTPGNLKY | < -0.25 |
| NAIGTGLNTVGPSRV | < -0.25 |
| LAMVQPTWNLLRLS | < -0.25 |
| HVSSTNLLS | < -0.25 |
| SFIYLVRQAPRKELAVFHRA | < -0.25 |
| VTV | 0.0829 |
| CRITAMDGGTWELRYGIVSH | < -0.25 |
| LRVNGSTVTVSPLSFATLDP | < -0.25 |
| NDNSRSDYASDVADVRNRPT | < -0.25 |
| GTRV | < -0.25 |
| RTSGDLRVPK | < -0.25 |
| NKAATFMISIVYVISSNVWR | < -0.25 |
| GAGVGSSPWVS | -0.215 |
| GPPYTDRLATYPQCRLSVGP | < -0.253 |
| RTEAS | < -0.25 |
| TVAQNLEQKAGHSDRRGV | < -0.25 |
| GCDSSLDDGDRV | < -0.25 |
| VEVEMCDSYGSASDSADQTG | < -0.25 |
| RDWPFIPNDTESAGPPARKI | < -0.25 |
| ATRYQAGLYKSSHYPRTMGV | < -0.25 |

A different layout for part of the listing above:
Substance | growth estimate
SLDW | < -0.25
ALVISGGELYNR | < -0.25
VYKT | < -0.25
VDWLAMLERSIVIFQRPGDT | < -0.25
GYRPLTVTRYLQIMSTSDHR | < -0.25
TTVKLRKPLM | < -0.25
HGIQRDQCHPSLCVVQVLQL | < -0.25
LEAREKN | < -0.25
AADHVGYLYWSALRGYARPY | < -0.25
LGDHKLVLIQP | < -0.25
AWLRVR | < -0.25
DIFRTIAQALGFWARDQRWG | < -0.25
LAGGKFVELSNGSVGERPIF | < -0.25
HVKSRSYLPSTRSLKFRYIC | -0.246
LGWTVQLLMTIRVRSAEEAT | < -0.25
GLIHGHDRTSGGGDVSGSHA | < -0.25
HLLRPIALTRIRGPYRASGA | < -0.25
PHAEDKSKSRECWLGECVWD | -0.23
WCKFVRHVSK | 0.126
QEIVSRERRIHIHIY | < -0.25
HRDRYHSTTACVS | < -0.25
RYRDNRLSQSFSHSLAKPAH | < -0.25
DLVWGMGRVSDLLSR | < -0.25
PVVLMNGFVL | < -0.25
PVSSVETHQVVVWLDG | < -0.25
QDPTPL | -0.243
EAHVLTNIPFG | < -0.25
TSIISGTTMAFALTRGKGTY | < -0.25
RQCGALLVLRRPRYSWPHKE | < -0.25
IYVNIFTVEVAGGASKNDVS | < -0.25
RSKPPWLNVLSSVATLVARP | < -0.25
SFR | < -0.25
EGAWC | < -0.25
PNSVVYE | < -0.25
RSGVNSRCCFAIELLVAVST | < -0.25
CALRTRLASRCTWVCDCVGE | < -0.25

Next entries:

| Substance | growth estimate |
| --- | --- |
| DCKNRIRTGRNKACVVRSHH | < -0.25 |
| GHLEIAFGGARLRASFSIYE | < -0.25 |
| GVTIVGGTSGPTNVWSGLRC | < -0.25 |
| RGCQ | < -0.25 |
| GLKSLRE | < -0.25 |
| TLVEALSGRSP | < -0.25 |
| VDRVASGSEIRRLVEPGVDF | < -0.25 |
| EIRLESVME | < -0.25 |
| STGRYKKTAAF | < -0.25 |
| TASMGRVSTTSEVLRGLAMV | < -0.25 |
| GAEETMGC | < -0.25 |
| VVTGEGFFSVLTG | < -0.25 |
| DPGAEGG | < -0.25 |
| GETSRSCINVEVIKPSAECR | < -0.25 |
| PRYYLRKHRVGNTQHQLHTA | < -0.25 |
| NGGYGAGTPGYACVQYLRII | < -0.25 |
| GLRSSGAICPTSGLSDGPPV | < -0.25 |
| RAQRARKGIKGIGWLSIDFA | < -0.25 |
| PDPDIGGRSHCVASY | < -0.25 |
| TGLARRL | < -0.25 |
| SADSRLAIWNGFVFQA | < -0.25 |
| GAPEGHLQSPLTSLGYTSVL | < -0.25 |
| MEGAVHA | < -0.25 |

| Substance | growth estimate |
| --- | --- |
| HCCGVRCSGNPTA | < -0.25 |
| HSEGTAPWGTCSYFPFEFFG | < -0.25 |
| PGKT | < -0.25 |
| SSLRSPPSLGAGC | < -0.25 |
| SNVSVL | < -0.25 |
| LETPALFLDGFANVSAWKYK | < -0.25 |
| HLGISGVHNVPREDLSKAES | < -0.25 |
| RSPD | < -0.25 |
| WDGSTAAIFDYASGSRTGDN | < -0.25 |
| DCHVGRFVK | < -0.25 |
| IVI | < -0.25 |
| RNCPPMVVREGGR | < -0.25 |
| CYKRQEMTMPCVLPCPGTTR | < -0.25 |
| YVRGTDLSMALLIELNNWGL | < -0.25 |
| TSAQPFSCPNGV | < -0.25 |
| PRSLIVHARGGREGHPGVHV | < -0.25 |
| SRKPLPGYQRGTLGKEIGRT | < -0.25 |
| GVIGTSSHAPYELTGRFYAH | < -0.25 |
| GTRVVAQPCGAIGMHVERGP | < -0.25 |
| YATAPEKSFPDETPNVTRNS | < -0.25 |
| KYLSKVQ | < -0.25 |
